For two molecules, binding results are on record in paper PMC9792525.

Amino acid sequences for entries named in this document (tags omitted). A change or cut given only in a name is not applied to a line headed by its entry.
UniProt A0A1P8B7J4: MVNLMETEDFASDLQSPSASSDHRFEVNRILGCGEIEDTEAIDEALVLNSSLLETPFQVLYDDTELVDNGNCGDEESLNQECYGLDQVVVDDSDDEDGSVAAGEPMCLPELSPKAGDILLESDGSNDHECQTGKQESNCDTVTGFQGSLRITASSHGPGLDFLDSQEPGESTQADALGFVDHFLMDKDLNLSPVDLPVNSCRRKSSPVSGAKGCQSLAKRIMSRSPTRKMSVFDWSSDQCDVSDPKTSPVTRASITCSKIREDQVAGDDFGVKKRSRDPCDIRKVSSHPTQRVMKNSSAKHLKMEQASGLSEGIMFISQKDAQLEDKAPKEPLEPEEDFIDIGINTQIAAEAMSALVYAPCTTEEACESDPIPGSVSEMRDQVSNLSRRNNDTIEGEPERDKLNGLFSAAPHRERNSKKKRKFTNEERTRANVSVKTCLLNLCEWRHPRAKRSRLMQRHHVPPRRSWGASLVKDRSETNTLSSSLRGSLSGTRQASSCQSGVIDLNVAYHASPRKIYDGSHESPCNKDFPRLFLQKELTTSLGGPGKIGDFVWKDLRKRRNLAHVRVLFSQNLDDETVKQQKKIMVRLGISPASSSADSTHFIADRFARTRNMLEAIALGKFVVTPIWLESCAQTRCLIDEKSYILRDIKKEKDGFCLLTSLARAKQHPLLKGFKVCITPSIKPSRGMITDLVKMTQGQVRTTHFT

Assay [1] concerns the target T1, GST-fused RAD51 (Arabidopsis) (UniProt P94102).
T1 sequence: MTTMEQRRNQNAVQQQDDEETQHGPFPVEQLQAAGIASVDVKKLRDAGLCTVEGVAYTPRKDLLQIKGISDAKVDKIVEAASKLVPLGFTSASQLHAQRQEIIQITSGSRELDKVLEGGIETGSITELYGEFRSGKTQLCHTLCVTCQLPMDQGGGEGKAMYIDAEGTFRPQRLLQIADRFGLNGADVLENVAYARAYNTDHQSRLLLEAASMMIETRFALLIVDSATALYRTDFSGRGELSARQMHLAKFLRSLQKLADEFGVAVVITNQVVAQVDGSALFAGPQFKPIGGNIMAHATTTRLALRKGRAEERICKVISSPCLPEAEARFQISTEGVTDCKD
As to the kind of experiment: pull-down; GST-RAD51 or GST immobilized on glutathione-Sepharose 4B beads, mixed with His-SUMO-XIP-M 4 h at 4 °C in 1x PBS, 0.2% NP-40, 1 mM DTT; washed with 20 mM Tris-HCl pH 8.0, 0.5 M NaCl, 0.5% NP-40; Western blot with anti-His; both purified. (In general: In western blotting, separated proteins are transferred to a membrane and probed.)

Assay [2] addresses N-terminally Myc-tagged XIP-M (Arabidopsis). Briefly: co-IP; Myc-XIP-M and RAD51-FLAG co-expressed in Arabidopsis mesophyll protoplasts; lysate immunoprecipitated with anti-Myc and protein A beads; Western blot with anti-Myc and anti-FLAG.

Results are given in words; binding and its absence hold for the method and conditions named. Binding calls can cover weak binding; strength is not graded here. Tags and fused reporters may be left off the sequences shown. For some assays here: In cells and extracts the contact can be indirect.

For the molecule “His-SUMO-tagged full-length XIP-M (from UniProt A0A1P8B7J4)”, in assay [1], the binding result is given as “binds”.

B1: FLAG-tagged RAD51 (protein, UniProt P94102 1-342)
chain: T1 sequence
For B1, the binding result in assay [2] was “binds”.
